# Results of single-concentration screens

The chains behind the UniProt entries cited, without tags or fusion partners. Residues count along the entry.
UniProt P9WPC5, whole entry: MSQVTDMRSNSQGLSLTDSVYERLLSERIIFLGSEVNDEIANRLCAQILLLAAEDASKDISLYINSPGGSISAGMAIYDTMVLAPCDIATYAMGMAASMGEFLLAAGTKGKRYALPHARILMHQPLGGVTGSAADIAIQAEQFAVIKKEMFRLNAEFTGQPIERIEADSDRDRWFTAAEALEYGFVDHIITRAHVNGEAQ
UniProt P9WPC3, whole entry partner: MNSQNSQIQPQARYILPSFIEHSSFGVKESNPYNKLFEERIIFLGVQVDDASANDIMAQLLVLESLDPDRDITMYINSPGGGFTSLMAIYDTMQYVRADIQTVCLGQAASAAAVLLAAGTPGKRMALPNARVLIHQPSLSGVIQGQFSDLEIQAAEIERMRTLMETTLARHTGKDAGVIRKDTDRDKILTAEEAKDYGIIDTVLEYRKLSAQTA
UniProt Q8IDJ8, 1-583: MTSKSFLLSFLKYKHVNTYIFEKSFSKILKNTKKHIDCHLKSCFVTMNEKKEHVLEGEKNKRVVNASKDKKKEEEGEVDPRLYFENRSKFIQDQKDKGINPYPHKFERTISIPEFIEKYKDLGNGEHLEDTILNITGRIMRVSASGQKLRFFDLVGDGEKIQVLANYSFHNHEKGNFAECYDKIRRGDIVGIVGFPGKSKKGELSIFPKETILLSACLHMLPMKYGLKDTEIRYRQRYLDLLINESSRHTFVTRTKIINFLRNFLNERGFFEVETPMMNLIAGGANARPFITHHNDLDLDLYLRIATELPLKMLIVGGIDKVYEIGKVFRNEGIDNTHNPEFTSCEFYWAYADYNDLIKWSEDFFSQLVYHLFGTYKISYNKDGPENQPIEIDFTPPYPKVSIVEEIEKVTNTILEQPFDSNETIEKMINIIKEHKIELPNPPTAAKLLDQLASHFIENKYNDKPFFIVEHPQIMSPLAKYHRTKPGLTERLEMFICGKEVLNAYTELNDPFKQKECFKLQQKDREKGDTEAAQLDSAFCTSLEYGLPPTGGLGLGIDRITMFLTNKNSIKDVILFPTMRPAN
UniProt P9WFT3, whole entry: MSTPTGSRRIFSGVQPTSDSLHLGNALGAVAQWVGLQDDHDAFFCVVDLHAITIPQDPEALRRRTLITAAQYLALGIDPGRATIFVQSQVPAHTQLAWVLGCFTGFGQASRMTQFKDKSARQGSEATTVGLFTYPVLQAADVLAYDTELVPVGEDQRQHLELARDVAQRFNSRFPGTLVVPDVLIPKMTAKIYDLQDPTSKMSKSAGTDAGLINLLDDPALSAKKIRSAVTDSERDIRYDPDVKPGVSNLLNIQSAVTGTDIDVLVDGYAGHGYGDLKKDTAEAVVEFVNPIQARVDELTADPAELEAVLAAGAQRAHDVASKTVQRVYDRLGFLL
UniProt A4I591, 1-473: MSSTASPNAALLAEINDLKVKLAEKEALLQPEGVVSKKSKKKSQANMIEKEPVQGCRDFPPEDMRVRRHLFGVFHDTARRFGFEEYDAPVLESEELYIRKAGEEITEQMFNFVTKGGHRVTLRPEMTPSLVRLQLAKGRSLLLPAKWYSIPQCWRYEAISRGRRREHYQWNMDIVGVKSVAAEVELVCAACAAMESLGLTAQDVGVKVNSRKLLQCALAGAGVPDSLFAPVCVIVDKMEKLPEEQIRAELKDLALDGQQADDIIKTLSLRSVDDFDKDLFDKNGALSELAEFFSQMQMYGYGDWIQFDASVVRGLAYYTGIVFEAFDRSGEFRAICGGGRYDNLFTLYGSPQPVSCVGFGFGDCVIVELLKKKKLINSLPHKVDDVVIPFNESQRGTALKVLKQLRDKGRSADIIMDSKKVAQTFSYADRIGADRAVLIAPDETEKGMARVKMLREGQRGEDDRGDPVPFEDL
UniProt Q4DA54, 1-478: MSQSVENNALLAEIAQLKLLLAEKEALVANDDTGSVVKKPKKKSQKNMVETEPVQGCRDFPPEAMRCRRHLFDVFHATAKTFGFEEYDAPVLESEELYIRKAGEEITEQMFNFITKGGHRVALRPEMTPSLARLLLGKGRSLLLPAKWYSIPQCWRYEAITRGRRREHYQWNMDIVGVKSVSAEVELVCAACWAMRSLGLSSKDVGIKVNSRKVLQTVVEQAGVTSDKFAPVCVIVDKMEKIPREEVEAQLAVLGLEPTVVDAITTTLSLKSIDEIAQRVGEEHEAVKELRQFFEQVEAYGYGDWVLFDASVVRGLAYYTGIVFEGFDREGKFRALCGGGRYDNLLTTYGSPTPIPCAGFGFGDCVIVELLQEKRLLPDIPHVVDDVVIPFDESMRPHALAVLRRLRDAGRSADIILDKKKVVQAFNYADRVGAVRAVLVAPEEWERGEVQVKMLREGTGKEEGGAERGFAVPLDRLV

From ChEMBL document CHEMBL3988442, “University of Dundee, Small-Polar-MMV Screening Library” (2021).

ClpP1P2: 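ClpP1P2, Mycobacterium tuberculosis (UniProt P9WPC5 and UniProt P9WPC3). Protease assay of ClpP1P2, read by the AMC dye that it sets free. Concentration: 50 µM. Direction is inferred from only a few compounds that gave an IC50; most scored high, so higher reads as stronger inhibition. Most other retested compounds had strongly negative values. Of about 69,000 compounds tested this way, about 10 (0.015%) reached 50% or more in at least one test.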
PfKRS1: 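Enzyme assay of the cytosolic lysyl-tRNA synthetase in 384-well plates, read by luminescence. Target: Lysine-tRNA ligase, Plasmodium falciparum 3D7 (UniProt Q8IDJ8). Concentration: 30 µM. Higher reads as stronger inhibition, judged from the few compounds that gave an IC50. Size under these conditions: about 69,000 compounds, about 49 of them at 50% or above in at least one test.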
MtTrpRS: 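Enzyme assay of tryptophanyl-tRNA synthetase; the read-out is not stated. Target: Tryptophan-tRNA ligase, Mycobacterium tuberculosis (UniProt P9WFT3). Tested at 10 µM. Higher most likely means stronger inhibition; the record gives no direction and few retests gave an IC50. About 65,000 compounds were tested under these conditions; 0.098% (about 64) showed 50% or more at least once.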
LiHisRS: 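Histidine-tRNA ligase, Leishmania infantum (UniProt A4I591). Enzyme assay of histidyl-tRNA synthetase; the read-out is not stated. Tested at 30 µM. Higher reads as stronger inhibition (inferred: compounds with an IC50 in retests scored well above the rest). The assay is labelled LdHisRS but filed under L. infantum. Of about 69,000 compounds tested this way, about 410 (0.6%) reached 50% or more in at least one test.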
TcHisRS: 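Enzyme assay of histidyl-tRNA synthetase; the read-out is not stated. Target: Histidine-tRNA ligase, Trypanosoma cruzi CL Brener (UniProt Q4DA54). Concentration: 30 µM. The record gives no direction; compounds that gave an IC50 in retests scored well above the rest, so higher reads as stronger inhibition. Of about 69,000 compounds tested this way, about 31 (0.045%) reached 50% or more in at least one test.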
Leishmania in macrophages: 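Cell assay of Leishmania donovani living inside macrophages; the read-out is not stated. Compounds at 30 µM. Direction is inferred from retests: higher values go with stronger inhibition. Size under these conditions: about 69,000 compounds, about 1,000 of them at 50% or above in at least one test.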

Results are given as percent effect. The controls that fix the scale are not given in the record; negative values are as filed. Compounds were drawn at random from those tested, without regard to their results. Two or more numbers in one place are separate tests of the same structure; such repeats can differ widely.

{"structure": "Cc1ccc(C(=O)N2C[C@@H]3CN(S(C)(=O)=O)CCO[C@@H]3C2)s1", "ClpP1P2": 1.079, "PfKRS1": 2.496, "MtTrpRS": -2.326, "LiHisRS": 12.28, "TcHisRS": 4.301}
{"structure": "CC1(C2CCN(CC(N)=O)CC2)CN(Cc2ccccc2)C(=O)CO1", "stereo": "centres undefined", "ClpP1P2": -1.73, "PfKRS1": 1.717, "MtTrpRS": -5.176, "LiHisRS": 13.1, "TcHisRS": 6.084, "Leishmania in macrophages": 15.91}
{"structure": "COc1ccc(-c2cnc(CN(CC(N)=O)C3CCCC3)o2)cc1", "ClpP1P2": 0.6281, "PfKRS1": 5.166, "MtTrpRS": -1.943, "LiHisRS": 7.254, "TcHisRS": 3.867, "Leishmania in macrophages": 0.9859}
{"structure": "Fc1cnc(N2CCO[C@H]3CN(CC4CCOC4)C[C@H]32)nc1", "stereo": "some centres undefined", "ClpP1P2": -12.3, "PfKRS1": -1.088, "MtTrpRS": 5.717, "LiHisRS": 2.778, "TcHisRS": 0}
{"structure": "CS(=O)(=O)c1cc(Cl)cnc1C1CCN(C(=O)C2CCCO2)CC1", "stereo": "centres undefined", "ClpP1P2": -16.27, "PfKRS1": -2.976, "MtTrpRS": -5.729, "LiHisRS": 4.317, "TcHisRS": 2.682, "Leishmania in macrophages": 18.93}
{"structure": "Cc1ccc(CNC2(Cc3cc(-c4ccc(F)cc4)on3)COC2)o1", "ClpP1P2": -4.849, "PfKRS1": 2.295, "MtTrpRS": -0.3794, "LiHisRS": 17.57, "TcHisRS": 4.348, "Leishmania in macrophages": 17.54}
{"structure": "Nc1nc2c(c(=O)[nH]1)CCN(C(=O)c1cccc3nccnc13)C2", "ClpP1P2": -1.692, "PfKRS1": 3.195, "MtTrpRS": 4.888, "LiHisRS": 23.58, "TcHisRS": 6.695, "Leishmania in macrophages": 33.98}
{"structure": "COCCn1ccc2ccc(C(=O)O)cc21", "ClpP1P2": -23.43, "PfKRS1": -3.469, "MtTrpRS": 5.376, "LiHisRS": 17.39, "TcHisRS": 9, "Leishmania in macrophages": -25.02}
{"structure": "Cn1cc(C2CCCN2C(=O)c2cn(-c3ccccc3)nn2)cn1", "stereo": "centres undefined", "ClpP1P2": -7.403, "PfKRS1": 2.036, "MtTrpRS": 2.394, "LiHisRS": -3.571, "TcHisRS": 1.744, "Leishmania in macrophages": 14.45}
{"structure": "[H][C@@]12CCN(C(=O)c3ccccc3)C[C@@]1([H])O[C@H](c1nnc(C3CC3)o1)C2", "Leishmania in macrophages": -0.2993}
{"structure": "CC(=O)N1CCO[C@H]2[C@H](OCCCn3cccn3)CC[C@@H]21", "ClpP1P2": -6.515, "PfKRS1": 0.3538, "MtTrpRS": -11.44, "LiHisRS": 4.167, "TcHisRS": 2.857}
{"structure": "Cn1cc(CN2CCC3(CC2)CN(C(=O)c2cnccn2)CCO3)cn1", "ClpP1P2": -22.51, "PfKRS1": -0.5425, "MtTrpRS": -0.9752, "LiHisRS": 2.778, "TcHisRS": 8.571, "Leishmania in macrophages": 21.09}
{"structure": "O=C(NCCNC(=O)c1scnc1Cl)c1ccoc1", "ClpP1P2": -1.337, "PfKRS1": 1.375, "MtTrpRS": 10.67, "LiHisRS": -1.724, "TcHisRS": 0, "Leishmania in macrophages": -33.92}
{"structure": "Cc1ccccc1S(=O)(=O)Cc1nsc(N(C)C)n1", "ClpP1P2": -1.127, "PfKRS1": -1.218, "MtTrpRS": 2.053, "LiHisRS": 15.5, "TcHisRS": 5.952, "Leishmania in macrophages": 32.47}
{"structure": "Cc1ccc2oc(SCC(N)=O)nc2n1", "ClpP1P2": -6.575, "PfKRS1": 4.27, "MtTrpRS": 2.931, "LiHisRS": 7.895, "TcHisRS": 1.22, "Leishmania in macrophages": "-10.67 and 0.1139"}